PubChem BioAssay AID652272 – Drosophila RNAi Screening Center | 2013

Assay: 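Genome-wide knock-down search for components of Hedgehog signalling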 (primary screen)
Cell system: Drosophila clone 8 (Cl8) cells
Reagent: long dsRNA against Drosophila genes
Measurement: 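Firefly light from a Hedgehog-responsive ptc promoter reporter and Renilla reference light, both read on a plate reader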
Reading the numbers: firefly Hh reporter signal: higher = more ptc reporter light; Renilla reference signal: higher = more Renilla control light
Call rule: 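Hit when the z-score averaged over two replicates is under -2 or over +3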
Calls: active = hit: reporter lowered or raised; inactive = not a hit
The screen tested about 21,000 reagents; below is an unselected part of those that have a named target and a result. Of all reagents, 503 (2.4%) were called active. 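Raw plate light values, not normalised; calls rest on replicate z-scores that were not deposited; hits include reporter decreases as well as increases.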 Entries without a mark were called inactive. Not stated in the record: the amount of reagent, the time to read-out.

gene | DRSC id | firefly Hh reporter signal, replicate 1 | firefly Hh reporter signal, replicate 2 | firefly Hh reporter signal, replicate 3 | Renilla reference signal, replicate 1 | Renilla reference signal, replicate 2
Tti1 | DRSC15163 | 57171 | 97370 | – | 1587 | 2680
CCAP | DRSC15674 | 4.66e5 | 1.24e5 | – | 23138 | 4107
Gdi | DRSC03330 | 1.07e5 | 80877 | – | 4054 | 3595
Gyg | DRSC03850 | 67717 | 1.43e5 | – | 6306 | 10512
Gyg | DRSC04556 | 97328 | 76864 | – | 2405 | 6329
CG5326 | DRSC13568 | 64707 | 1.89e5 | – | 14394 | 4167
CG5326 | DRSC15770 | 1.67e5 | 1.15e5 | – | 6443 | 4978
GXIVsPLA2 | DRSC10243 | 1.08e5 | 52090 | – | 4048 | 2289
ATP8 (retired record) | DRSC21277 | 98683 | 3.39e5 | – | 2115 | 13936
CG10694 | DRSC14263 | 5.18e5 | 76086 | – | 26784 | 2612
Gale | DRSC08234 | 1.36e5 | 1.10e5 | – | 5981 | 4533
MED21 | DRSC20932 | 2.05e5 | 3.99e5 | – | 6740 | 16205
CG8813 | DRSC00706 | 98407 | 1.02e5 | – | 3681 | 3859
CG13871 | DRSC06430 | 73869 | 52928 | – | 2387 | 4473
Osi7 | DRSC12176 | 74058 | 1.01e5 | – | 3019 | 2807
CG7794 | DRSC16313 | 4.90e5 | 79859 | – | 25728 | 2114
CG42813 | DRSC15939 | 1.42e5 | 1.01e5 | – | 3378 | 2592
Tep2 | DRSC02679 | 98068 | 49744 | – | 3043 | 3802
Tep2 | DRSC03451 | 1.57e5 | 57001 | – | 3772 | 4883
Dscam2 | DRSC08869 | 7.05e5 | 1.74e5 | 1.22e5 | 5922 | 4722
Dscam2 | DRSC10198 | 49805 | 57225 | – | 1072 | 4490
Dscam2 | DRSC10285 | 15572 | 13092 | – | 2679 | 1242
Dscam2 | DRSC11018 | 31143 | 51389 | – | 4359 | 5138
Dscam2 | DRSC11019 | 57769 | 44564 | – | 6992 | 4116
CG7384 | DRSC03053 | 60945 | 1.34e5 | – | 2912 | 4775
CG34326 (retired record) | DRSC19165 | 7.49e5 | 2.22e5 | – | 43392 | 4118
rdgB | DRSC20365 | 5.84e5 | 77380 | – | 3206 | 3206
CAH5 | DRSC15372 | 80929 | 69466 | – | 3076 | 1227
LpR2 | DRSC13726 | 41767 | 2.64e5 | – | 11808 | 6311
LpR2 | DRSC13728 | 43116 | 1.74e5 | – | 11216 | 3819
LpR2 | DRSC15655 | 70787 | 69105 | – | 1810 | 2216
LpR2 | DRSC15658 | 3.83e5 | 1.14e5 | – | 18562 | 3179
CG11816 | DRSC19428 | 63415 | 1.49e5 | – | 1465 | 5573
WASp | DRSC15032 | 1.22e5 | 1.51e5 | – | 3329 | 4045
CG15279 | DRSC01935 | 88032 | 43284 | – | 3328 | 1801
Ocrl | DRSC18576 | 1.42e5 | 1.04e5 | – | 3572 | 3424
mag | DRSC11787 | 1.14e5 | 64579 | – | 5152 | 2854
CG4239 | DRSC19885 | 56722 | 53853 | – | 1243 | 931
PIG-U | DRSC02193 | 63779 | 79863 | – | 2981 | 3002
